This is one part of the list.
The sequences below were run against T1, OsSMF1 (Oryza sativa, UniProt Q6ZLB0 1-436) (assay: protein-binding microarray (RPBM); PBS, 2% BSA, 51.3 ng/ul salmon testes DNA, 50 uM zinc acetate, 200 nM TF, 25 C, 1 h; high values mean tight binding). Settings: protein: recombinant; tags: N-terminal polyhistidine and DsRed monomer fusion (pET32a); chain copies: 2; label: CyDye5-dUTP incorporated in the synthesized complementary strand; 3' TTTTT single-stranded linker to array surface; dsDNA, one strand shown.
T1 sequence: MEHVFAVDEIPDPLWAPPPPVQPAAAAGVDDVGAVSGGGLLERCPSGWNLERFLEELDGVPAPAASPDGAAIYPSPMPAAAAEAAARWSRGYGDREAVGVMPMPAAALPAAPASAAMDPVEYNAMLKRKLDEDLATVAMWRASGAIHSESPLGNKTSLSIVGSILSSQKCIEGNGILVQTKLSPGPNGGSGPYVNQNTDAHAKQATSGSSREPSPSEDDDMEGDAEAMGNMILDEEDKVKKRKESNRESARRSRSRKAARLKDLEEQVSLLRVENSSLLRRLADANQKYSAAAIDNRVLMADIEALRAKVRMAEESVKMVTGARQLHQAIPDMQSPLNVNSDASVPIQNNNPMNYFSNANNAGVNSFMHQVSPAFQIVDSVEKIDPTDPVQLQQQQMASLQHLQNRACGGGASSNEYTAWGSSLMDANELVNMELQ
In short: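 Binding signal here means per-feature fluorescence intensity in arbitrary units. The values were read on an Axon 4000B scanner after a custom Agilent array, double-stranded by primer extension with Cy5-dUTP, was incubated with 200 nM protein at 25 °C for 1 h in PBS with 2% BSA, salmon testes DNA and 50 µM zinc acetate, then washed. The proteins were transcription factors with an N-terminal polyhistidine tag and DsRed, expressed in E. coli BL21-CodonPlus and purified on Ni–NTA.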

| Sequence | binding signal |
| --- | --- |
| ACAAATAATCTTGTATCAACAGCTTGTCACGAGATCATTTCGGAGTCACCTAGTGCAG | 3330 fluorescence intensity (a.u.) |
| GTCGCACCGACTAGACTACGCCACTCGATTTGACGTCGGCCGGAGTCACCTAGTGCAG | 4090 fluorescence intensity (a.u.) |
| ATGCTACACTCTGCTTACTACTTACAGTTGCTGACCGTAGCGGAGTCACCTAGTGCAG | 4220 fluorescence intensity (a.u.) |
| TACTTGTCAGGCACTGAATGTCTGAACTCTGAAACTCTCTCGGAGTCACCTAGTGCAG | 3240 fluorescence intensity (a.u.) |
| ATTATCGTCCAGATACGAAGCCCCACGTCATCCTGCCCATCGGAGTCACCTAGTGCAG | 15200 fluorescence intensity (a.u.) |
| GGCGGCCGCCACGCTGGACGTACGGTCGTACTGGACCAGCCGGAGTCACCTAGTGCAG | 6800 fluorescence intensity (a.u.) |
| TATCACTGTAGTTGCATGCTAAGATCCAAATGCCACATACCGGAGTCACCTAGTGCAG | 3530 fluorescence intensity (a.u.) |
| TGCGGGATGGCTGGTTGGTGTGCGTGTGCTTCGGTGCGTTCGGAGTCACCTAGTGCAG | 3620 fluorescence intensity (a.u.) |
| GAGAGCGAGAGGCCACCTGTCGCCGTGCCGCGTCGGCAAGCGGAGTCACCTAGTGCAG | 8060 fluorescence intensity (a.u.) |
| GGAGTCCCTTGCCGAGGAGATGACGATGGCTAGCGGTTGTCGGAGTCACCTAGTGCAG | 4130 fluorescence intensity (a.u.) |
| GAAAGAAAATACGTGCCACCGCATCTATAAATGGACAAGCCGGAGTCACCTAGTGCAG | 3800 fluorescence intensity (a.u.) |
| AGAATCCAGAGTAACAGTGTCACATCCTGATTTTCGTTTTCGGAGTCACCTAGTGCAG | 3600 fluorescence intensity (a.u.) |
| AATTTTCATGCCGTCACATCGAATATTTGGACACATGCATCGGAGTCACCTAGTGCAG | 4390 fluorescence intensity (a.u.) |
| CACATTCCGTCCTGCTACCGTCACGTCTCCATAAAGCCATCGGAGTCACCTAGTGCAG | 3190 fluorescence intensity (a.u.) |
| GTATTATATTATTAATTAATCGCCGTCACCTCGTCGCCATCGGAGTCACCTAGTGCAG | 3760 fluorescence intensity (a.u.) |
| ATCTCGGATACAAAATAAATGTACAAGGCCACACATCATGCGGAGTCACCTAGTGCAG | 4060 fluorescence intensity (a.u.) |
| GGATAGCATCATAGCAGATGTTGGCGTCTCTGTTCACAAACGGAGTCACCTAGTGCAG | 3300 fluorescence intensity (a.u.) |
| GGAACACCGTCACATAGGTGCCAAGTCAGTAAAACCTCCCCGGAGTCACCTAGTGCAG | 6490 fluorescence intensity (a.u.) |
| GGCCATAGGCTCAAGCGCACGTCAGTTGCCATAAATTGGCCGGAGTCACCTAGTGCAG | 3650 fluorescence intensity (a.u.) |
| GATGACGAACTCGCCGCGGCCGGTGTACTCGACGTGGCCGCGGAGTCACCTAGTGCAG | 4310 fluorescence intensity (a.u.) |
| CTACTCTTGCATACACAACACAACTACTCCCAAGTCCCCACGGAGTCACCTAGTGCAG | 20400 fluorescence intensity (a.u.) |

| Sequence | binding signal |
| --- | --- |
| GGAATAATGATTAATCGATGACAGTGGCAAAAGCTATCGGCGGAGTCACCTAGTGCAG | 3670 fluorescence intensity (a.u.) |
| ATCGCTGTCCAGTTTCGCGCCACGTGGCAATTGGCAAAGACGGAGTCACCTAGTGCAG | 8470 fluorescence intensity (a.u.) |
| TTGAGCAGCCTCCCTTCCCCGGCGAGCAGCCCCGCCGCCGCGGAGTCACCTAGTGCAG | 3720 fluorescence intensity (a.u.) |
| CGAGGCCGCGGCCGCTGCTCAGTTCAGGCTCAGCTCGAGGCGGAGTCACCTAGTGCAG | 3420 fluorescence intensity (a.u.) |
| TCGCTTGAATCTACGAGCATTTCGGTATCCTCCCCAAATTCGGAGTCACCTAGTGCAG | 3220 fluorescence intensity (a.u.) |
| CGTGTTATACGTGTATGGCAAATTAGGTAACAGATTAATGCGGAGTCACCTAGTGCAG | 3820 fluorescence intensity (a.u.) |
| CGTATTTGATCCTAGTCAGCCACCCCTGCTTCCTTCTTCTCGGAGTCACCTAGTGCAG | 12100 fluorescence intensity (a.u.) |
| TTCTTTCCGTGATTGGGGCTCGATGCGATGTAGTCTAGTGCGGAGTCACCTAGTGCAG | 3170 fluorescence intensity (a.u.) |
| GAATTAACAGTATGTAATACAGTACTACGTGTCTCCCACACGGAGTCACCTAGTGCAG | 4770 fluorescence intensity (a.u.) |
| CCAATTAATCAGGAGTCAATGACTCGCCTCATTTTACCTTCGGAGTCACCTAGTGCAG | 3320 fluorescence intensity (a.u.) |
| ATTATCATCGTTGTAACTTCATCGTTGTACCTTAGCATAACGGAGTCACCTAGTGCAG | 14600 fluorescence intensity (a.u.) |
| GCGTGTCCTCGGTGGATGTAGGTTTTGGTGGAAAGGAGGGCGGAGTCACCTAGTGCAG | 3150 fluorescence intensity (a.u.) |
| GACGGCGACGGCCGCCCCGTCGGCGCGGTGTCGCTGGCGCCGGAGTCACCTAGTGCAG | 3510 fluorescence intensity (a.u.) |
| GCAAATAGCCCAACAAAACTGACGAGGAACATGAACCCGACGGAGTCACCTAGTGCAG | 3440 fluorescence intensity (a.u.) |
| AAGCTGTTTTCTTCTGACGAGGCTCTCGGACACGCGAAGCCGGAGTCACCTAGTGCAG | 3360 fluorescence intensity (a.u.) |
| TAGCTATTGACTTAGCCACGCACACGATATGATGTTTCTACGGAGTCACCTAGTGCAG | 4100 fluorescence intensity (a.u.) |
| CTTGCCCCGCGCTGAGTCCTTGGCATCTGATGCTTTATCTCGGAGTCACCTAGTGCAG | 3190 fluorescence intensity (a.u.) |
| CGTTTGCATGCATGCACGGTACACGTGGTGTGCATACGTACGGAGTCACCTAGTGCAG | 8520 fluorescence intensity (a.u.) |
| CCCACCCACCATACACGCATGCGACCCACTGGCACGCGGACGGAGTCACCTAGTGCAG | 4220 fluorescence intensity (a.u.) |
| AAGCTCCTTTGCTGAGACAGATTTCCGAGTAGCCGGCGAACGGAGTCACCTAGTGCAG | 29400 fluorescence intensity (a.u.) |
| CAAGTCCTCCTCCTCAGGCCAGCCAGCTCACGCACGCATGCGGAGTCACCTAGTGCAG | 7370 fluorescence intensity (a.u.) |

As a working copy, some entries already given:

| Sequence | binding signal |
| --- | --- |
| CGTATTTGATCCTAGTCAGCCACCCCTGCTTCCTTCTTCTCGGAGTCACCTAGTGCAG | 12100 fluorescence intensity (a.u.) |
| TTCTTTCCGTGATTGGGGCTCGATGCGATGTAGTCTAGTGCGGAGTCACCTAGTGCAG | 3170 fluorescence intensity (a.u.) |

From article PMC7819943, “Rice protein-binding microarrays: a tool to detect cis-acting elements near promoter regions in rice”
